# From PubChem BioAssay AID624297 (National Center for Advancing Translational Sciences (NCATS), 2012)
# In all, about 340,000 compounds went through this assay and about 6,200 (1.8%) were called active. Inconclusive means that the source gave no clear call. Such entries were picked first, then a sample of the others. The call rests on the fitted dose curve; in most records, active means well fitted activation curve with a large enough effect; inconclusive means small, poorly fitted or top-dose-only effect; inactive means no such curve, though single readings can be large or run the other way. Where the call is inconclusive, the potency comes from a doubtful curve fit.
# Experiment: A quantitative high throughput screen for small molecules that induce DNA re-replication in SW480 colon adenocarcinoma cells. Further: nearly all actives have a fitted effect of over 55% in size. On re-replication activation: % of control where 0% means no effect.
# Conditions: Hoechst DNA content imaging, 48 h; re-replication activation: at 46.1 µM (top of the series) unless noted
# How it was run: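 Cells (250 per well) received 23 nL compound or DMSO by pin tool and were kept 48 hr at 37 C, 5% CO2. Nuclei were then stained with Hoechst for 40 min and scanned for DNA content.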
# Potency means the concentration at half of the fitted maximal effect.
SMILES,re-replication activation,Potency
O=C(NCc1ccco1)c1cccc2ccccc12,inactive: -2.73%,
CN(C)CCCN(Cc1cc2cc3c(cc2[nH]c1=O)OCO3)C(=S)Nc1cccc(Cl)c1,,"inconclusive: 29.1 µM [activator, single point]"
C[C@H]1CN([C@@H](C)CO)C(=O)Cc2cc(NC(=O)CCC(F)(F)F)ccc2O[C@H]1CN(C)Cc1ccc(-c2ccccc2)cc1,inactive: -5.37%,
COc1ccc(CNC(=O)COC(=O)C(CCSC)N2C(=O)c3ccccc3C2=O)cc1 (centres undefined),inactive: 9.91%,
CCn1ncc(C(=O)Nc2cccc(Cl)c2)c1C,,"inconclusive: 6.51 µM [activator, single point]"
O=C1c2ccccc2OC2(C=Cc3ccccc3O2)N1Cc1ccccc1 (centres undefined),,"inconclusive: 23.1 µM [activator, single point]"
COc1cc(NC(=O)Cn2ncc(Cl)c(Cl)c2=O)c(C)cc1[N+](=O)[O-],,"inconclusive: 2.59 µM [activator, full curve]"
CCOc1ccc(CNC(=S)N/N=C/c2cccnc2)cc1,inactive: -2.26%,
CCOC(=O)N1CCN(C(=O)Cn2ccc3ccccc3c2=O)CC1,inactive: -8.76%,
COC(=O)c1cc(S(=O)(=O)N2CCN(c3ccc(F)cc3)CC2)c[nH]1,,"inconclusive: 2.06 µM [activator, partial curve, poor fit]"
O=C(COC(=O)/C=C/c1ccco1)Nc1cc(S(=O)(=O)N2CCOCC2)ccc1Cl,,"inconclusive: 6.51 µM [activator, single point]"
Cc1[nH]n(-c2ccccc2)c(=O)c1N=Nc1nccs1,,"inconclusive: 18.4 µM [activator, single point]"
Cc1cc(N2CCCCC2C)nc(-c2ccccc2O)n1 (centres undefined),,"inconclusive: 29.1 µM [activator, single point]"
Cc1ccc(C(=O)CC(=O)c2cc(Cl)ccc2O)cc1,,"inconclusive: 29.1 µM [activator, single point]"
Cc1ccc2occ(/C=N/NC(=O)c3ccccc3Br)c(=O)c2c1,inactive: -6.65%,
Cc1ccc(C(C)NC(=O)c2cc3cc(Br)ccc3oc2=N)cc1 (centres undefined),inactive: -2.94%,
COc1ccc2c(c1)sc(=N)n2C,,"inconclusive: 20.6 µM [activator, partial curve, poor fit]"
COc1ccc(CCN(C)Cc2ccc(C(=O)Nc3ccccc3)cc2)cc1OC,,"inconclusive: 11.6 µM [activator, partial curve, poor fit]"
COc1ccc(NCC(=O)Nc2ccccc2C#N)cc1Cl,inactive: 0.333%,
CCOC(=O)c1sc(NC(=O)c2ccc(S(=O)(=O)N3CCCCCC3)cc2)nc1-c1ccccc1,inactive: 2.57%,
O=C(CCSCc1cccc(F)c1)NCc1ccc(F)cc1,,"inconclusive: 2.91 µM [activator, single point]"
COc1ccc(CCNS(=O)(=O)CCNC(=O)c2ccccc2)cc1,,"inconclusive: 0.0046 µM [activator, full curve, poor fit]"
CC(=O)C1=C(O)C(=O)N(CCCN2CCOCC2)C1c1ccccc1[N+](=O)[O-] (centres undefined),,"inconclusive: 18.4 µM [activator, single point]"

# 14 compounds already listed, arranged by SMILES length, rising.
SMILES,re-replication activation,Potency
COc1ccc2c(c1)sc(=N)n2C,,"inconclusive: 20.6 µM [activator, partial curve, poor fit]"
O=C(NCc1ccco1)c1cccc2ccccc12,inactive: -2.73%,
CCn1ncc(C(=O)Nc2cccc(Cl)c2)c1C,,"inconclusive: 6.51 µM [activator, single point]"
Cc1cc(N2CCCCC2C)nc(-c2ccccc2O)n1 (centres undefined),,"inconclusive: 29.1 µM [activator, single point]"
O=C(CCSCc1cccc(F)c1)NCc1ccc(F)cc1,,"inconclusive: 2.91 µM [activator, single point]"
CCOc1ccc(CNC(=S)N/N=C/c2cccnc2)cc1,inactive: -2.26%,
Cc1ccc(C(=O)CC(=O)c2cc(Cl)ccc2O)cc1,,"inconclusive: 29.1 µM [activator, single point]"
Cc1[nH]n(-c2ccccc2)c(=O)c1N=Nc1nccs1,,"inconclusive: 18.4 µM [activator, single point]"
COc1ccc(CCNS(=O)(=O)CCNC(=O)c2ccccc2)cc1,,"inconclusive: 0.0046 µM [activator, full curve, poor fit]"
O=C1c2ccccc2OC2(C=Cc3ccccc3O2)N1Cc1ccccc1 (centres undefined),,"inconclusive: 23.1 µM [activator, single point]"
Cc1ccc2occ(/C=N/NC(=O)c3ccccc3Br)c(=O)c2c1,inactive: -6.65%,
COC(=O)c1cc(S(=O)(=O)N2CCN(c3ccc(F)cc3)CC2)c[nH]1,,"inconclusive: 2.06 µM [activator, partial curve, poor fit]"
CN(C)CCCN(Cc1cc2cc3c(cc2[nH]c1=O)OCO3)C(=S)Nc1cccc(Cl)c1,,"inconclusive: 29.1 µM [activator, single point]"
C[C@H]1CN([C@@H](C)CO)C(=O)Cc2cc(NC(=O)CCC(F)(F)F)ccc2O[C@H]1CN(C)Cc1ccc(-c2ccccc2)cc1,inactive: -5.37%,

# Remaining list, next part

SMILES,re-replication activation,Potency
O=C(Cn1cnc2ccc(Cl)cc2c1=O)c1cccs1,,"inconclusive: 25.9 µM [activator, partial curve, poor fit]"
O=C(NN=Cc1ccc(F)cc1)c1ccccc1NS(=O)(=O)c1cccs1,inactive: 0.514%,
Cc1cc(C)n2nc(C)c(Br)c2n1,,"inconclusive: 4.11 µM [activator, partial curve, poor fit]"
Cc1ccc2[nH]c3c(c2c1)CCNC3=O,inactive: -12.6%,
Nc1c(Cl)ncnc1NCCc1ccc(O)cc1,,"inconclusive: 0.651 µM [activator, full curve]"
CCC(=O)Nc1c(C#N)c2nc3ccccc3nc2n1-c1ccc(C)cc1,,"inconclusive: 23.1 µM [activator, single point]"
COc1ccc(Cn2c(-c3ccc(C)cc3)c[n+]3ccccc23)cc1,inactive: -2.26%,
O=C(Nn1cnnc1)c1cc(Cl)cc(Cl)c1,inactive: -0.722%,
O=C1NC(=S)S/C1=C\c1coc2ccc(O)cc2c1=O,,"inconclusive: 8.2 µM [activator, partial curve]"
CCOc1ccc(S(=O)(=O)N(CC(=O)Nc2cccnc2)c2ccc(F)cc2)cc1,,"inconclusive: 29.1 µM [activator, partial curve, poor fit]"
Cc1cc(N2CCN(S(=O)(=O)c3ccccc3)CC2)c2ccccc2n1,,"inconclusive: 29.1 µM [activator, single point]"
CCCCSc1nc(CCC)cc(=O)[nH]1,inactive: 12.9%,
CCOc1ccc(N2C(=O)CC(N(CCc3ccc(OC)c(OC)c3)C(=S)Nc3ccccc3)C2=O)cc1 (centres undefined),,"inconclusive: 7.31 µM [activator, partial curve, poor fit]"
CCOC(=O)c1c(NC(=S)NCc2ccccc2)sc2c1CCN(C(=O)OCC)C2,,"inconclusive: 29.1 µM [activator, single point]"
CCCCNC(=O)C1CCCN1S(=O)(=O)c1cccc2nsnc12 (centres undefined),,"inconclusive: 13 µM [activator, partial curve, poor fit]"
O=C(CSc1nc(Nc2ccccc2)nc(N2CCOCC2)n1)Nc1cc(Cl)ccc1O,,"inconclusive: 29.1 µM [activator, single point]"
CCOC(=O)Nc1ccc2c(c1)C(=NNC(N)=S)c1ccccc1-2,,"inconclusive: 29.1 µM [activator, single point]"
CCOC(=O)C(C)(C)N(Cc1cccc(C)c1)S(=O)(=O)c1cccc([N+](=O)[O-])c1,inactive: -4.37%,
O=C(COc1ccc(-c2ccccc2)cc1)NNC(=O)Nc1ccccc1,inactive: -6.08%,
CCOc1ccc(NC(=O)CN(C)C(=O)c2ccc(COc3ccccc3)cc2)cc1OCC,inactive: 1.33%,
C=CCc1ccc(OCC(O)CN2CCc3ccccc3C2)c(OC)c1 (centres undefined),,"inconclusive: 20.6 µM [activator, single point]"
CCOc1ccc2[nH]c3c(NCC(C)C)ncnc3c2c1,inactive: -2.28%,
Cc1ccc(S(=O)(=O)N2CCOCC2)cc1C(=O)Nc1cccc(C(=O)NC2CC2)c1,,"inconclusive: 29.1 µM [activator, single point]"

SMILES,re-replication activation,Potency
CCOc1cc(C(=O)N2CCC(CC3CC(c4ccc(Cl)cc4)=NO3)(C(=O)NCC3CCCCC3)CC2)cc(OCC)c1OCC (centres undefined),inactive: 1.31%,
O=C(NC1CCCCC1)C(c1ccncc1)N(C(=O)c1csnn1)c1ccc(F)cc1 (centres undefined),,"inconclusive: 0.1 µM [activator, full curve, poor fit]"
CCOc1ccc(-n2c(=O)c3c4c(sc3n(CC(=O)NCC3CCCO3)c2=O)CCC4)cc1 (centres undefined),,"inconclusive: 29.1 µM [activator, single point]"
O=C(Cc1nnc(NC(=O)Nc2ccccc2F)s1)NCc1ccccc1,inactive: -52.2%,
O=C(CSc1ccc2nnc(-c3ccc(F)cc3)n2n1)N1CCOCC1,,"inconclusive: 20.6 µM [activator, partial curve, poor fit]"
COc1ccc(-c2csc(NC(=O)c3cc(C)oc3C)n2)cc1OC,,"inconclusive: 18.4 µM [activator, single point]"
NC(=O)c1c(NC(=O)c2ccccc2)sc2c1CCc1ccccc1-2,,"inconclusive: 16.4 µM [activator, partial curve, poor fit]"
COc1ccccc1C(=O)Nc1ccc2c(c1)nc(CCNC(C)=O)n2C,inactive: -11.9%,
CNC[C@H](Cc1ccccc1)NC[C@@H](Cc1cccc2ccccc12)NCCc1ccc(C)cc1,,"inconclusive: 0.103 µM [activator, full curve, poor fit]"
CCOC(=O)c1[nH]c2ccc(OCC)cc2c1CCCN1C(=O)c2ccccc2C1=O,,"inconclusive: 6.51 µM [activator, single point]"
O=C(COc1ccc([N+](=O)[O-])cc1)NNC(=O)c1cccs1,inactive: -22.7%,
COc1ccccc1N1CCN(/N=C/C=C/c2ccccc2[N+](=O)[O-])CC1,inactive: 8.21%,
COc1ccc(C)cc1NC(=O)CN1C(=O)CSc2ccc(S(=O)(=O)N3CCCC3)cc21,,"inconclusive: 16.4 µM [activator, partial curve, poor fit]"
COc1ccc(OC)c(NC(=O)CCN2C(=O)c3cccc([N+](=O)[O-])c3C2=O)c1,,"inconclusive: 29.1 µM [activator, single point]"
Cc1ccc(N2C(=O)CC(N3CCN(c4ccc(F)cc4)CC3)C2=O)c(C)c1 (centres undefined),inactive: -0.312% [at 1.84 µM],
Cc1ccc(O)c(N=CC2=C(O)c3ccccc3C2=O)c1,,"inconclusive: 29.1 µM [activator, single point]"
COc1cccc(/C=N/NC(=O)c2ccoc2C)c1O,,"inconclusive: 0.651 µM [activator, full curve, poor fit]"
COc1ccc(Cc2[nH]n3c(=O)cc(C)nc3c2-c2ccccc2)cc1,,"inconclusive: 18.4 µM [activator, single point]"
COc1cccc(-c2nnc(NC(=O)c3ccccc3Br)o2)c1,,"inconclusive: 25.9 µM [activator, partial curve, poor fit]"
COc1ccc(F)cc1C1=CC(=O)C[C@H](c2ccc3c(c2)OCO3)C1,,"inconclusive: 25.9 µM [activator, single point]"
CCOc1ccc(C(O)Cn2c(=N)n(CCN3CCCCC3)c3ccccc32)cc1 (centres undefined),,"inconclusive: 29.1 µM [activator, single point]"
O=C(NNC(=O)c1cccnc1SCc1cccc([N+](=O)[O-])c1)c1ccccn1,,"inconclusive: 2.31 µM [activator, full curve]"
O=C(Nc1ccc(S(=O)(=O)N2CCCC2)cc1)c1cc(F)c(F)cc1Cl,,"inconclusive: 23.1 µM [activator, single point]"
